The series concerns the target GST (UniProt P08515). In words: EMSA. The settings on record: 2 uM RNA, 5 uM protein; EMSA: 10 mM Tris-HCl pH 7.5, 20 mM KCl, 1 mM MgCl2, 1 mM DTT, room temp 5 min, 2% agarose 0.5x TBE; recombinant protein; protein details: GST.

The chains behind the UniProt entries cited, without tags or fusion partners.
UniProt P08515, whole entry: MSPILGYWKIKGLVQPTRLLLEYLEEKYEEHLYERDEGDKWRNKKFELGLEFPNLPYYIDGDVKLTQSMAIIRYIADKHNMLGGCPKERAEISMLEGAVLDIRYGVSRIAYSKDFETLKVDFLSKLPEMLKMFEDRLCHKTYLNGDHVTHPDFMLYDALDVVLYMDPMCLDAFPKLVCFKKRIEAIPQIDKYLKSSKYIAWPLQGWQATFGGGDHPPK

For at least one entry, the source does not settle the construct or the ends of the probe. A negative result means that nothing was seen under these conditions.

In the case of “CAAGACAAGACAAGACAAGACAAGACAAGA [(CAAGA)6]”, the binding result is listed as “no binding”.

These data come from PMC8113354.
